# Measured values reported in patent publication US20250243287A1 (SHENGHE CHINA BIOPHARMACEUTICAL, published 2025).
# Protein sequences, listed by entry. Tags and fused reporters are not part of them.
# UniProt P51685: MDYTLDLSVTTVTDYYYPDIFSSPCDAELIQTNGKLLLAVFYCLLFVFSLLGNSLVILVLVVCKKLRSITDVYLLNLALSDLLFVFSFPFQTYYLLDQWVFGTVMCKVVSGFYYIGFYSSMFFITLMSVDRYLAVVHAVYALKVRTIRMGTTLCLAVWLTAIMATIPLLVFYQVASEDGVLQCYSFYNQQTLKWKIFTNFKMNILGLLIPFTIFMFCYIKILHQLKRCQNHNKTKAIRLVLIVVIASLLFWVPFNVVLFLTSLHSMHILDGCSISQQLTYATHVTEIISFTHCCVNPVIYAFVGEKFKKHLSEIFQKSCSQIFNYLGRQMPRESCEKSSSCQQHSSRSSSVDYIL
# Substitutions are numbered along the chain they refer to. No constants are given. Whether binding was seen depends on the method and setting. Some entries that bind do so weakly or less than the wild type.
# B1: Ms-8 (antibody, V domains shown)
# VH: EVQLVETGGGLVQPKGSLKLSCAASGFTFNTYAMNWVRQTPEKGLEWVARIRTKSNNYATSYADSVKDRFTISRYDSQNMLYLQMNNLKTEDTAMYYCVRGGYGIRGDYAMDYWGQGTSVTVSS
# VL: DIVMTQAAPSVPVTPGESVSISCRSTKSLLHSNGNTYLYWFLQRPGQSPQLLIYRMSNLASGVPDRFSGSGSGTTFTLRISRVEAEDVGVYYCMQHLEYPFTFGSGTKLEIK
# notes: Mouse hybridoma antibody; also called mouse-derived anti-CCR8 antibody Ms-8
# B2: Ms-15 (antibody, V domains shown)
# VH: B1 VH with Y32N, T40A, E42G, A49G, S61Y, K67R, N79G, A110T
# VL: B1 VL with T26S, T75A
# notes: Mouse hybridoma antibody; also called mouse-derived anti-CCR8 antibody Ms-15
# B3: Ms-1 (antibody, V domains shown)
# VH: QVQLQQSGAELVRPGASVTLSCKASGYTFTAYEMHWVRQTPVNGLEWIGAIDPKTGVTAYNQKFKDKAIMTADKYSSTAYMDLRSLTSEDSAVYYCTSRAGGRGRFAYWGQGTLVTVSA
# VL: DVVMTQTPLSLPVSLGDQASISCRSSQSLVHSSANTYLHWYLQKPGQSPKVLIYKVSNRFSGVPDRFSGSGSGTDFTLKISRVEAEDLGLYFCSQSTHVPFTFGGGTKLEIK
# notes: Mouse hybridoma antibody; also called mouse-derived anti-CCR8 antibody Ms-1
# Biological target: human CCR8 (chemokine (C-C motif) receptor 8) (human) (UniProt P51685)
# Assay: flow cytometry on CCR8-CHO-K1 cells, PE anti-human IgG Fc secondary
row,binding,Binder
1,binds,B1
2,binds,B2
3,binds,B3
